Laboratory results from publication PMC7617576.
Results are given in words; binding and its absence hold for the method and conditions named. In cells and extracts the contact can be indirect. A yes stands for co-enrichment or nearness to the bait. Other partners may have been found. For some assays here: No binding means not detected with the bait. For some assays here: Tags and fused reporters may be left off the sequences shown. Values belong to the molecule of their own block, whether it stands above or below them.

By UniProt entry, the sequences of proteins in these tests, tags left out.
UniProt P02557: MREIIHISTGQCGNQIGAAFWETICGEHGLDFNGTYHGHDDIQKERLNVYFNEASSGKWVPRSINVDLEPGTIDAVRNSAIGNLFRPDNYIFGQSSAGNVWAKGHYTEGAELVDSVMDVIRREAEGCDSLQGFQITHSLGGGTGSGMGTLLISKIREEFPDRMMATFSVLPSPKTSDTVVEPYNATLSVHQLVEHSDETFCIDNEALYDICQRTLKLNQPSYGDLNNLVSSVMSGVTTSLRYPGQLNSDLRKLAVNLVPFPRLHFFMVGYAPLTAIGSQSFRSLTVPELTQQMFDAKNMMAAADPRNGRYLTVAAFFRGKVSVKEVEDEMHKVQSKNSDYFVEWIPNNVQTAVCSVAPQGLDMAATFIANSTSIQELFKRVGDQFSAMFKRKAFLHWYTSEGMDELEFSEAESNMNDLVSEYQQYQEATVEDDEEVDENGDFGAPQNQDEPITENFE
UniProt P09733: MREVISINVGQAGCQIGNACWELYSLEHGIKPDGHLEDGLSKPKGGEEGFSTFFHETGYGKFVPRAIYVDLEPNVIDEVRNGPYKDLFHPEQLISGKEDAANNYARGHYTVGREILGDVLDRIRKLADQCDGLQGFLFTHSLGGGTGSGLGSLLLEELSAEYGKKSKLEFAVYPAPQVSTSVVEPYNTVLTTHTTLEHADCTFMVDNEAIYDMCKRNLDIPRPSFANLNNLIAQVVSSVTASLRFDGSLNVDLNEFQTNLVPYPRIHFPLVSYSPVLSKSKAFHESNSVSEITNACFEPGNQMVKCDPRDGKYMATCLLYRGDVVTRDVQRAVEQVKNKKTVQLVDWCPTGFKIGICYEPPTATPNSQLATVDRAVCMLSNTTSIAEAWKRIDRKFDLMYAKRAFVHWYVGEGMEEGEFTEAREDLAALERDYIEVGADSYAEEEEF
UniProt P38903: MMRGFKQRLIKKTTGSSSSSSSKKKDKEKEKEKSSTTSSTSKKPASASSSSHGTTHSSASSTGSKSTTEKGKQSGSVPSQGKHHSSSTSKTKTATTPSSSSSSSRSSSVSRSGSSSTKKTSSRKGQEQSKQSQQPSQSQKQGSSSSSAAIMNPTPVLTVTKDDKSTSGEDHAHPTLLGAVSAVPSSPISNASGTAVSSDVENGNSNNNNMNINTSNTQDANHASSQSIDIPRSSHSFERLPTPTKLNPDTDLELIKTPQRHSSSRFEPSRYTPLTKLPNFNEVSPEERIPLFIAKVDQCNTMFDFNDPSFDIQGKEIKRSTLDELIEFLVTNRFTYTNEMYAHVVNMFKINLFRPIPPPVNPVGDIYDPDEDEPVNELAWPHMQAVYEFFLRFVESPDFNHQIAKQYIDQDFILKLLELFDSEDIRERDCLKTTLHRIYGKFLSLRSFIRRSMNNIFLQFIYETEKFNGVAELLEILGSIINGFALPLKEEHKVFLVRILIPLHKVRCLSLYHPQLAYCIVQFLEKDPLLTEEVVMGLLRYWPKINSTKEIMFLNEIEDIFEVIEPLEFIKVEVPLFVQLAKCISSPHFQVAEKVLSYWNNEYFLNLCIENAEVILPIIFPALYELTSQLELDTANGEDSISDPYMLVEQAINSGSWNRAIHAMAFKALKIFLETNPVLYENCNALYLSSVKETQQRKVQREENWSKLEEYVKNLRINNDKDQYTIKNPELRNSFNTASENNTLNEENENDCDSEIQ
UniProt P09734: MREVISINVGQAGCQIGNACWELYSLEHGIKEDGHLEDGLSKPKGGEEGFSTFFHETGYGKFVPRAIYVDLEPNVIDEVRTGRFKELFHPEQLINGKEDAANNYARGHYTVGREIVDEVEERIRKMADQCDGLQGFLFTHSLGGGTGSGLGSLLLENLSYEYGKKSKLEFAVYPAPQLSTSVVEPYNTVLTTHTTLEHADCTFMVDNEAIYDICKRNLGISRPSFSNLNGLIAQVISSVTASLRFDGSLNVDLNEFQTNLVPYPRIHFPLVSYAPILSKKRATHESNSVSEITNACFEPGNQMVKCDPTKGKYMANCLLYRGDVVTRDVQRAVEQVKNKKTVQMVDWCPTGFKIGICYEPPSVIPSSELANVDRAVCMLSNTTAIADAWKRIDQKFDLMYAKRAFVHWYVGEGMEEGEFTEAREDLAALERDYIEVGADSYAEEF
UniProt P40460: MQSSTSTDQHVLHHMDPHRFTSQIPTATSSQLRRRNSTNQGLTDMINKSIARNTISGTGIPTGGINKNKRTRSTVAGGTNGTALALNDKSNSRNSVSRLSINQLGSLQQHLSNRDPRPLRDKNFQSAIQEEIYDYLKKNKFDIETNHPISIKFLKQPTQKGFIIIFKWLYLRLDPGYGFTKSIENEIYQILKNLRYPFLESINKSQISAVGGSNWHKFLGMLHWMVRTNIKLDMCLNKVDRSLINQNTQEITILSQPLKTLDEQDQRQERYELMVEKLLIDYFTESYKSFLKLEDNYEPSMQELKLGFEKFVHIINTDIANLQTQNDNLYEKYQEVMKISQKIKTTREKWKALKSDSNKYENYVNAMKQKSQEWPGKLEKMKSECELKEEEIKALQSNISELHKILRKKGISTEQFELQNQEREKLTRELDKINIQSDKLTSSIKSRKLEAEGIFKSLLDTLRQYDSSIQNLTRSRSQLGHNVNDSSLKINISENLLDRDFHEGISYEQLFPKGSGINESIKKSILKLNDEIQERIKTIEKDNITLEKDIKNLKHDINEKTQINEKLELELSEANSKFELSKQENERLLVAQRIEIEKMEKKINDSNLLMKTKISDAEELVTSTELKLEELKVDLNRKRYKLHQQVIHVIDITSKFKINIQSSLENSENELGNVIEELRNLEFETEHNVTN

Experiments:
[1] = molecular target: T1, Mad3-FLAG (S. cerevisiae (SK1)) (UniProt P47074); experiment: affinity purification with mass spectrometry; anti-FLAG M2 on Protein G Dynabeads, lysate of meiotic SK1 cells harvested 75 min after release from a prophase I arrest (prometaphase/metaphase I); against a no-tag control; buffer H0.15M (25 mM HEPES pH 8, 150 mM KCl, 0.1% NP-40), 4°C, 2.5 h; three biological replicates
T1 sequence: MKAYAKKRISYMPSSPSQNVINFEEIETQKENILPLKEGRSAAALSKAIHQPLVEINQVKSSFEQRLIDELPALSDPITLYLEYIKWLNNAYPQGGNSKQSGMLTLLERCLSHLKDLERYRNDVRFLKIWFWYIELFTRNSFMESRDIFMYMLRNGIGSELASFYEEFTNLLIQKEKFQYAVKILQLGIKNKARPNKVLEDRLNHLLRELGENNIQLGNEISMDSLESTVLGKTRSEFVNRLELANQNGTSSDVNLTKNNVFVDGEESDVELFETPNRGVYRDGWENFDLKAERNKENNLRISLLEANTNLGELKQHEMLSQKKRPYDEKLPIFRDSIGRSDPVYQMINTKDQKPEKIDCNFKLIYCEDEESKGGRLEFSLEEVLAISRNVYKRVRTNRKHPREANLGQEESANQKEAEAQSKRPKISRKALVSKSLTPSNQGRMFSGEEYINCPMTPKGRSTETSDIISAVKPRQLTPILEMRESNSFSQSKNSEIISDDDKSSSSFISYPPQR

[2] = molecular target: Mad2-FLAG (S. cerevisiae (SK1)) (UniProt P40958); experiment: as above
[3] = molecular target: T1, Mad3-FLAG (S. cerevisiae (SK1)); experiment: affinity purification with mass spectrometry; anti-FLAG M2 on Protein G Dynabeads, Mad3-FLAG from cells arrested in metaphase I by depletion of Cdc20 (pCLB2-CDC20), harvested 6 h after inducing sporulation; wild-type and mad2Δ cells compared; buffer H0.15M, 4°C
[4] = molecular target: T2, Mad2-FLAG (S. cerevisiae (SK1)), P40958; experiment: affinity purification with mass spectrometry; anti-FLAG M2 on Protein G Dynabeads, lysate of meiotic SK1 cells harvested 75 min after release from a prophase I arrest (prometaphase/metaphase I); against a no-tag control; buffer H0.15M (25 mM HEPES pH 8, 150 mM KCl, 0.1% NP-40), 4°C, 2.5 h; three biological replicates; settings: remark: other sources report otherwise
T2 chain: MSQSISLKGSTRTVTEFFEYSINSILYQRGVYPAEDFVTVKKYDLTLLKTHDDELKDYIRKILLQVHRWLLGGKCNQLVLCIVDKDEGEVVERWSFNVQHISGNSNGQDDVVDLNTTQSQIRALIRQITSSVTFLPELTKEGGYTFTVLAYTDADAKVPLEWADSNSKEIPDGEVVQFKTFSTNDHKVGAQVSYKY

Molecule: Tub2 (from UniProt P02557 1-457)
binding [1]: binds

Molecule: Tub1 (from UniProt P09733 1-447)
binding [1]: binds

B3: Bub3 (protein, UniProt P26449 1-341)
chain: MQIVQIEQAPKDYISDIKIIPSKSLLLITSWDGSLTVYKFDIQAKNVDLLQSLRYKHPLLCCNFIDNTDLQIYVGTVQGEILKVDLIGSPSFQALTNNEANLGICRICKYGDDKLIAASWDGLIEVIDPRNYGDGVIAVKNLNSNNTKVKNKIFTMDTNSSRLIVGMNNSQVQWFRLPLCEDDNGTIEESGLKYQIRDVALLPKEQEGYACSSIDGRVAVEFFDDQGDDYNSSKRFAFRCHRLNLKDTNLAYPVNSIEFSPRHKFLYTAGSDGIISCWNLQTRKKIKNFAKFNEDSVVKIACSDNILCLATSDDTFKTNAAIDQTIELNASSIYIIFDYEN
binding [1]: binds

B4: Mad3^BUBR1, P47074 1-515 (protein)
chain: T1 sequence
binding [4]: no binding

More lines, now with the values ahead:

binding [1]: binds
Molecule: Rts1, a subunit of PP2A-B56 (from UniProt P38903 1-757)

binding [1]: binds
Molecule: Tub3 (from UniProt P09734 1-445)

binding [2]: binds
binding [1]: no binding
Molecule: Ndc80 (from UniProt P40460 1-691)

binding [1]: binds
B1: Ptc3 (enzyme, UniProt P34221 1-468)
chain: MGQILSNPIIDKEHHSGTDCLTAFGLCAMQGWRMSMEDAHIVEPNLLAESDEEHLAFYGIFDGHGGSSVAEFCGSKMISILKKQESFKSGMLEQCLIDTFLATDVELLKDEKLKDDHSGCTATVILVSQLKKLLICANSGDSRTVLSTGGNSKAMSFDHKPTLLSEKSRIVAADGFVEMDRVNGNLALSRAIGDFEFKSNTKLGPHEQVVTCVPDIICHNLNYDEDEFVILACDGIWDCLTSQECVDLVHYGISQGNMTLSDISSRIVDVCCSPTTEGSGIGCDNMSISIVALLKENESESQWFERMRSKNYNIQTSFVQRRKSIFDFHDFSDDDNEVFAITTKKLQDRLNRSKDNDDMEIDDLDTELGSSATPSKLSGEDRTGPIDLFSLEALLEAGIQIRQRPSSDSDGNTSYFHGASLSDMLASLSNAAAGETEPNDADDNDDNDGEENGKNENAKKGSKIEEIE

binding [3]: binds
binding [1]: binds
B2: Ptc7 (enzyme, UniProt P38797 40-343)
chain: YQSNNSHGDAYSSGSQSGPFTYKTAVAFQPKDRDDLIYQKLKDSIRSPTGEDNYFVTSNNVHDIFAGVADGVGGWAEHGYDSSAISRELCKKMDEISTALAENSSKETLLTPKKIIGAAYAKIRDEKVVKVGGTTAIVAHFPSNGKLEVANLGDSWCGVFRDSKLVFQTKFQTVGFNAPYQLSIIPEEMLKEAERRGSKYILNTPRDADEYSFQLKKKDIIILATDGVTDNIATDDIELFLKDNAARTNDELQLLSQKFVDNVVSLSKDPNYPSVFAQEISKLTGKNYSGGKEDDITVVVVRVD
